Data: paper PMC3958441, “Isl1 and Pou4f2 Form a Complex to Regulate Target Genes in Developing Retinal Ganglion Cells” (PLoS ONE, 2014)
For at least one entry, the source does not settle the construct or the ends of the probe. At least one verdict was read from the data and is not stated in words by the source. Tags and fusion partners may be left off the protein sequences shown.

Target: T1, Isl1D2 (mouse) (UniProt P61372)
T1 sequence (looked up): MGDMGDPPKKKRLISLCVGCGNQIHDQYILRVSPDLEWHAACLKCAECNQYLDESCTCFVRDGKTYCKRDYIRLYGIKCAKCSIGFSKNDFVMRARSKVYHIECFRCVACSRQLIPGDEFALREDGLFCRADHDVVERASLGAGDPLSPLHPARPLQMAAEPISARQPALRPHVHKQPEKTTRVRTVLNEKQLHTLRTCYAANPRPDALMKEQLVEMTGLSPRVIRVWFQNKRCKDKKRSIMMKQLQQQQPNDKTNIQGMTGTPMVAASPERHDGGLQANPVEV
Test: EMSA
Details: EMSA: 20 mM Tris-HCl pH 7.5, 50 mM NaCl, 10 mM DTT, 1 mM EDTA, 5% glycerol, 200 ng dI/dC, 200 ng each protein in 20 ul, 4 C, 30 min, 8% PAGE, 1x TBE, recombinant protein, residues 1-284, protein details: His (C-terminal)

| Sequence | binding result |
| --- | --- |
| GCACACGACCCAATGAATTAATAACCGGGCTG / GCAGCCCGGTTATTAATTCATTGGGTCGTGTG [SBRN3(W)] | binds |
| GATCTCTCCTGCATAATTAATTACCCCCGGAT / GATCCGGGGGTAATTAATTATGCAGGAGAGAT [CBRN3(W)] | binds |
